Measurements from doi:10.1101/2025.07.23.666382.
Results are given in words; binding and its absence hold for the method and conditions named. In cells and extracts the contact can be indirect. Some results given as binding are weak or reduced against the parent protein; the word gives no strength.

Chains of the proteins cited; added tags and fusions are not shown. Residues count along the entry.
UniProt Q3UVX5, residues 19-1203: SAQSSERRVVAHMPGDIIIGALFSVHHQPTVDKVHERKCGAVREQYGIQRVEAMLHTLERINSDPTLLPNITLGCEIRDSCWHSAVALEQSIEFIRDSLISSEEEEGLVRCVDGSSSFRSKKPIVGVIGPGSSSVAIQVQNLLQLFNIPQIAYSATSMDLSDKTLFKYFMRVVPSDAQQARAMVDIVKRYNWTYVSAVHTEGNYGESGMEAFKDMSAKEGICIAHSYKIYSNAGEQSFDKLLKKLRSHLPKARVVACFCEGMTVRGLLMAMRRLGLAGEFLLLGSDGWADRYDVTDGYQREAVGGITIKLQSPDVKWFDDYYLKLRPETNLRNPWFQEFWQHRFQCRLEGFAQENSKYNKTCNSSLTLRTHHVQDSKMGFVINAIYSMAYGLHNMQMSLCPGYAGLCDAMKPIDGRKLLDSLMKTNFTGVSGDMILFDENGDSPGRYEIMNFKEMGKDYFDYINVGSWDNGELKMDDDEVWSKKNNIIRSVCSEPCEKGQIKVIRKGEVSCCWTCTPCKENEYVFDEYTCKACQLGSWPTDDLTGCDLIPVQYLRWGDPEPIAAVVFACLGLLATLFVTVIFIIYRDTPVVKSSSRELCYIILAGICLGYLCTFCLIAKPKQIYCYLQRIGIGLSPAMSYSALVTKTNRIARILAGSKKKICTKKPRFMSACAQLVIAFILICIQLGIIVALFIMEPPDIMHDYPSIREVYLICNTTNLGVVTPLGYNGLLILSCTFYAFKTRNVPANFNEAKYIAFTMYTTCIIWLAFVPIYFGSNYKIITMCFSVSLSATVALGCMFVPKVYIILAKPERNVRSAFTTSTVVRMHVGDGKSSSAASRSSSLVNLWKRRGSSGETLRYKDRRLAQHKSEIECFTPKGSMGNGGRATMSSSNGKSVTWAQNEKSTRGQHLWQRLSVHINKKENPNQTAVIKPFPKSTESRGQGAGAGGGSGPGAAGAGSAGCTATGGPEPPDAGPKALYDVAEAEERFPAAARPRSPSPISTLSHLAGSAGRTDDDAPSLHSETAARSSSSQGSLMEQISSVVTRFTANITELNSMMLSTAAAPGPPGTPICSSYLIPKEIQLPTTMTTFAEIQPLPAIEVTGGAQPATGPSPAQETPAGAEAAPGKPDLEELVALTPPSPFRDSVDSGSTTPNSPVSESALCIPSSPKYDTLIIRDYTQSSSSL
UniProt Q4ACU6: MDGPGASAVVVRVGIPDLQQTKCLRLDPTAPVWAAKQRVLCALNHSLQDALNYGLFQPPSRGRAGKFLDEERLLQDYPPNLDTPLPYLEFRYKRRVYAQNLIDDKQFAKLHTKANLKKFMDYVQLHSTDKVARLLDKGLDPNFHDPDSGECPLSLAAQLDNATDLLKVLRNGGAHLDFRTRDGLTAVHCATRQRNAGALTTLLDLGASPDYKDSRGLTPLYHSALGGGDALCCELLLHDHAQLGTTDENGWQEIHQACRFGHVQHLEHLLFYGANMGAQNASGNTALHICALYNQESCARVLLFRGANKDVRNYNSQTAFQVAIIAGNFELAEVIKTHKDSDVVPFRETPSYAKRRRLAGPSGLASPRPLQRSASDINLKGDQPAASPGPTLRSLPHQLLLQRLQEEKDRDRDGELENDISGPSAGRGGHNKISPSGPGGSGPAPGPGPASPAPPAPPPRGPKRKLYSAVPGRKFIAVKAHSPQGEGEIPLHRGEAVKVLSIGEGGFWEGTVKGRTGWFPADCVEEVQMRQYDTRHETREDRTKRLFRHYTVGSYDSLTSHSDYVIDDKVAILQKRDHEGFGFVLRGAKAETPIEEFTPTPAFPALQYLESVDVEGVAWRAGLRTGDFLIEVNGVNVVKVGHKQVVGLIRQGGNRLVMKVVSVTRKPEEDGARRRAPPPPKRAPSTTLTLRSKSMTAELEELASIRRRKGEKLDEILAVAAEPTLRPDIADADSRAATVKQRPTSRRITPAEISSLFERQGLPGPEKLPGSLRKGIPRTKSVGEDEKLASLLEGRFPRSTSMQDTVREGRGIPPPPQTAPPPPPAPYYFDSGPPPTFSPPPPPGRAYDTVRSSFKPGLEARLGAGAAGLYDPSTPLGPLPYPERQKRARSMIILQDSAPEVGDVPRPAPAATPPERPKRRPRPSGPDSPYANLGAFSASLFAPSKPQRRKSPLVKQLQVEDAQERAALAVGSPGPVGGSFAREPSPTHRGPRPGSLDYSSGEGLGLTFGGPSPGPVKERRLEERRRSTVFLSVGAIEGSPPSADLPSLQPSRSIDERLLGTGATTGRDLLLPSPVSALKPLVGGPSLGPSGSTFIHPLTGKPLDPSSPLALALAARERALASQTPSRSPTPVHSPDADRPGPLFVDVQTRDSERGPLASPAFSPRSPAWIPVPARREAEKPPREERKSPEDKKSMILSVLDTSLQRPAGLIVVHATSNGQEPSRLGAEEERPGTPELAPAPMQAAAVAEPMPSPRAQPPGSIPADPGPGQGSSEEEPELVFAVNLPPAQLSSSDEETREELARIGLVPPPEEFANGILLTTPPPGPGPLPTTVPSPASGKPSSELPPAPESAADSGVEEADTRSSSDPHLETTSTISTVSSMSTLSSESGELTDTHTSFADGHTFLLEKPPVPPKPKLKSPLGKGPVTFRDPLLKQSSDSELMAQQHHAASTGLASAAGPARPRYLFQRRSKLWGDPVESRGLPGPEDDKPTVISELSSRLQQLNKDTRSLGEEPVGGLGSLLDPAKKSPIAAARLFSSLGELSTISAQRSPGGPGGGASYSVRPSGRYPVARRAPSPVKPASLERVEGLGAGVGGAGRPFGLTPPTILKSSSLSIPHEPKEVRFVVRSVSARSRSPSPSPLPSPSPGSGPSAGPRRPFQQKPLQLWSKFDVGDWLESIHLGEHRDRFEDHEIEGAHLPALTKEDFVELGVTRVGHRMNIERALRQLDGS

Biological target: metabotropic glutamate 5 (mGlu5) receptor (mouse (endogenous in primary cortical neurons)) (UniProt Q3UVX5)
Test: proximity ligation

“SH3 And Multiple Ankyrin Repeat Domains 3 (Shank3) (from UniProt Q4ACU6 1-1730)” was tested, and the binding was “binds”.
